Source: patent US7919584B1, “Methods and compositions for diagnosis and treatment of asthma” (Arbor Vita Corporation, priority 2005, dated 2011)
“Also recorded” adds a separate entry of the source. Not every detail of the peptide structures is certain; ends, links or a residue may be inferred. Peptide text beside a SMILES is read from it.

What was measured:
[1] = test system: PDZ domains (GST-PDZ fusions); assay: modified G assay screen of biotinylated Tat-CLCA peptides against GST-PDZ fusion collection; type: binding, human; conditions: interactions reproducibly giving optical density of at least 0.5 at signal to noise ratio of at least 1.5; absorbance at 450 nm
FLJ31349 = assay: modified G assay titration, peptide vs constant GST-PDZ domain fusion; set-up: species or system human; conditions: binding of peptide to FLJ31349

SMILES	PDZ binding partners [1]	EC50 (FLJ31349)
CC[C@H](C)[C@H](NC(=O)[C@H](CCCNC(=N)N)NC(=O)[C@H](CCCNC(=N)N)NC(=O)[C@H](CCCNC(=N)N)NC(=O)[C@H](CCC(N)=O)NC(=O)[C@H](CCCNC(=N)N)NC(=O)[C@H](CCCNC(=N)N)NC(=O)[C@H](CCCCN)NC(=O)[C@H](CCCCN)NC(=O)[C@H](CCCNC(=N)N)NC(=O)CNC(=O)[C@H](Cc1ccc(O)cc1)NC(=O)CCCC[C@@H]1SC[C@@H]2NC(=O)N[C@@H]21)C(=O)NCC(=O)N[C@@H](CCC(=O)O)C(=O)N[C@@H](CC(C)C)C(=O)N[C@@H](CCC(N)=O)C(=O)N[C@@H](CC(C)C)C(=O)N[C@@H](CO)C(=O)N[C@H](C(=O)N[C@@H](C)C(=O)O)[C@@H](C)CC [Tat-hCLCA1] (HELM PEPTIDE1{[O=C1N[C@H]2[C@H](CS[C@H]2CCCCC(=O)[*:2])N1].Y.G.R.K.K.R.R.Q.R.R.R.I.G.E.L.Q.L.S.I.A}$$$$V2.0)	MUPP1 (PDZ #10); also recorded: KIAA1415; also recorded: KIAA1284; also recorded: INADL (PDZ #8); also recorded: GORASP1 (PDZ #1); also recorded: KIAA0313; also recorded: NeDLG (PDZ #3)	–
CSCC[C@H](NC(=O)[C@H](CCC(=O)O)NC(=O)[C@H](CCCNC(=N)N)NC(=O)[C@H](CCCNC(=N)N)NC(=O)[C@H](CCCNC(=N)N)NC(=O)[C@H](CCC(N)=O)NC(=O)[C@H](CCCNC(=N)N)NC(=O)[C@H](CCCNC(=N)N)NC(=O)[C@H](CCCCN)NC(=O)[C@H](CCCCN)NC(=O)[C@H](CCCNC(=N)N)NC(=O)CNC(=O)[C@H](Cc1ccc(O)cc1)NC(=O)CCCC[C@@H]1SC[C@@H]2NC(=O)N[C@@H]21)C(=O)N[C@@H](CCC(N)=O)C(=O)N[C@H](C(=O)N[C@H](C(=O)N[C@@H](CC(C)C)C(=O)NCC(=O)N[C@@H](CC(C)C)C(=O)N[C@@H](Cc1c[nH]cn1)C(=O)O)[C@@H](C)O)C(C)C [Tat-CLCA3] (HELM PEPTIDE1{[O=C1N[C@H]2[C@H](CS[C@H]2CCCCC(=O)[*:2])N1].Y.G.R.K.K.R.R.Q.R.R.R.E.M.Q.V.T.L.G.L.H}$$$$V2.0)	GORASP1; also recorded: KIAA0313; also recorded: KIAA1284	600 nM
